Data on 35 targets can be found in the supplement of paper PMC10849652.

Protein sequences, listed by entry. Tags and fused reporters are not part of them. Lines headed by an entry give the natural chain unless they say otherwise; changes in a name come on top.
UniProt Q9UL54: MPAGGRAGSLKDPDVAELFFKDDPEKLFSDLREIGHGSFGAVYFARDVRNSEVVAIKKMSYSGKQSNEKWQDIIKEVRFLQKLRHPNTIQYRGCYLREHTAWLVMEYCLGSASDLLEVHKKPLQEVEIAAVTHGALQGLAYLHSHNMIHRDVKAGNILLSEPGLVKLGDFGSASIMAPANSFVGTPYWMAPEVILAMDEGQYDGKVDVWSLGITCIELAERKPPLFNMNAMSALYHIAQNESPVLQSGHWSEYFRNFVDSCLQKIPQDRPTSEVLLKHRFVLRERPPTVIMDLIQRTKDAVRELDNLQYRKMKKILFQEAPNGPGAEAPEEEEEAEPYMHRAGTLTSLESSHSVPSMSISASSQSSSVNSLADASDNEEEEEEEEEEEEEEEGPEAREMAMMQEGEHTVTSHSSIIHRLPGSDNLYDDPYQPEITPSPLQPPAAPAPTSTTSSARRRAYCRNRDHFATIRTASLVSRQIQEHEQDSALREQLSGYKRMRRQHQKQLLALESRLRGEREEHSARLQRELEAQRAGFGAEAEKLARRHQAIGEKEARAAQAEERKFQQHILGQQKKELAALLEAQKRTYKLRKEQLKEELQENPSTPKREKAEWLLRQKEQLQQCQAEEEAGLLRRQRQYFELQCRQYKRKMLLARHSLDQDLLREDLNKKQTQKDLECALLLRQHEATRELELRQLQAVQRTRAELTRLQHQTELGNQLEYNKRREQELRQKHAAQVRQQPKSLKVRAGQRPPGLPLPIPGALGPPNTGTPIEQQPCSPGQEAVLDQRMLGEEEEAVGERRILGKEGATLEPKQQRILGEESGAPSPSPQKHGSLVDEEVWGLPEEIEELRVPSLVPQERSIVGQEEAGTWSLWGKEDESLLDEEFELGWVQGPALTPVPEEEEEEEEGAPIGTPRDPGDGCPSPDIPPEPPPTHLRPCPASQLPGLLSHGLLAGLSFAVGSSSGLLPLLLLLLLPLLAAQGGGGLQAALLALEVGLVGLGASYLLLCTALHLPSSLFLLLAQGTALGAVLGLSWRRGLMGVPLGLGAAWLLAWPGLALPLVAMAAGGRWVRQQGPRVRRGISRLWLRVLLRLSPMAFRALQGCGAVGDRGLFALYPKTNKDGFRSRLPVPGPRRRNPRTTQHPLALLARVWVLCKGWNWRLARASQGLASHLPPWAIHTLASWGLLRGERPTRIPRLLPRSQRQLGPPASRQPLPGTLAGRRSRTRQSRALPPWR
UniProt Q9ULQ0: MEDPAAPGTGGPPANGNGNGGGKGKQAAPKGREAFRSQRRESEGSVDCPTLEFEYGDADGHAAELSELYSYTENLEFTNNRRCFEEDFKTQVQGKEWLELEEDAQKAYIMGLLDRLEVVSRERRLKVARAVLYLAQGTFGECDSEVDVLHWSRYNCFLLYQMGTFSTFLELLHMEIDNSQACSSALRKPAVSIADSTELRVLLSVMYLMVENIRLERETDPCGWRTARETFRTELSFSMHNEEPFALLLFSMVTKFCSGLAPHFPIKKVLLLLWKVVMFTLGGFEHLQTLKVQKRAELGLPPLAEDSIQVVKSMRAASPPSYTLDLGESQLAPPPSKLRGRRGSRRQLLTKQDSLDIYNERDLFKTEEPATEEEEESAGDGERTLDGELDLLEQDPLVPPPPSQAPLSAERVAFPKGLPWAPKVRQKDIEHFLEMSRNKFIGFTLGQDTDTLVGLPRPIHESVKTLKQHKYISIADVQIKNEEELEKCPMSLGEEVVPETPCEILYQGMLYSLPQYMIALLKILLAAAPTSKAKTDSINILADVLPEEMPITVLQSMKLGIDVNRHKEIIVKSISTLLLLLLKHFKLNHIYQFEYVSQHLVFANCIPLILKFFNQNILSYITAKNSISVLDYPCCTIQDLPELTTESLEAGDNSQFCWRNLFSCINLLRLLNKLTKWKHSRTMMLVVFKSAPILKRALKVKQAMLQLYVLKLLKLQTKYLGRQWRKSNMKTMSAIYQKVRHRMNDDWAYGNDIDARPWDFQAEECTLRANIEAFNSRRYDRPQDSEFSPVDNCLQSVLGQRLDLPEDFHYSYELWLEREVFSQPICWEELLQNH
UniProt Q9Y6J9: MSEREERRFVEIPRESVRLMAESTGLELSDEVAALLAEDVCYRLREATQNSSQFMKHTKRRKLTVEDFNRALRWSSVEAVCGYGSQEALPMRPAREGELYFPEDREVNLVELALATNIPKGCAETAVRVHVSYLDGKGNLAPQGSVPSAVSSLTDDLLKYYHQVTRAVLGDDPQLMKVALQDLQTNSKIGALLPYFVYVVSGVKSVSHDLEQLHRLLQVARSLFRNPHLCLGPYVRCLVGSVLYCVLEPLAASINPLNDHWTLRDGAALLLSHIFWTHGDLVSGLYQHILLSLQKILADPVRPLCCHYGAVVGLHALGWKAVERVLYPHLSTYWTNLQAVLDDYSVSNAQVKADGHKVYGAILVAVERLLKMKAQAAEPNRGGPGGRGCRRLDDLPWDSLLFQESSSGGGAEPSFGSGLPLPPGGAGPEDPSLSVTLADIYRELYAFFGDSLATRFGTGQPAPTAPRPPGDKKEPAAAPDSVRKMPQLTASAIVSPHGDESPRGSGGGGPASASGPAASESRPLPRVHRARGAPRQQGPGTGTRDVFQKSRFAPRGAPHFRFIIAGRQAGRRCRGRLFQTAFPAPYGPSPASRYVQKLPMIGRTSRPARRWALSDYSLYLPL
UniProt O94901, whole entry, looked up: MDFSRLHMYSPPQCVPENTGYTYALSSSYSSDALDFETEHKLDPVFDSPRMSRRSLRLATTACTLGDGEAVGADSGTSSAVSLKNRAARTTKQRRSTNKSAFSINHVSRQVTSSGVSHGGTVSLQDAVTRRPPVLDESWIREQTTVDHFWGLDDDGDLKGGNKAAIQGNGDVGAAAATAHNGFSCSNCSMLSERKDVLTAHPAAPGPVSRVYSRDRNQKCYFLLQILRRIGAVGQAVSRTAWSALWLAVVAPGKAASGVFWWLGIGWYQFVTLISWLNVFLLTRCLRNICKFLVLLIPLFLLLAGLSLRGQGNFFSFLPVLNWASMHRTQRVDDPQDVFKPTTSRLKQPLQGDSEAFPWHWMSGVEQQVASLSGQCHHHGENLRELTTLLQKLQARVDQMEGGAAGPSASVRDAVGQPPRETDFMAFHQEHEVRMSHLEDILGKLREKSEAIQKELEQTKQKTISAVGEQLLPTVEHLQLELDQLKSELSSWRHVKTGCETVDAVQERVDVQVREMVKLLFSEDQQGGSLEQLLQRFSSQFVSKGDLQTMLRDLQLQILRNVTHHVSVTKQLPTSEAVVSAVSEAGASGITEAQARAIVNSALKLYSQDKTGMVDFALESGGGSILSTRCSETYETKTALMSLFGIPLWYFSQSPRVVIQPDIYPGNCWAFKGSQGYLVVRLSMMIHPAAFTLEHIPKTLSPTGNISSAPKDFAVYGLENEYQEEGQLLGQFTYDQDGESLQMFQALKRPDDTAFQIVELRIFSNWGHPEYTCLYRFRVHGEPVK
UniProt Q8WUJ0: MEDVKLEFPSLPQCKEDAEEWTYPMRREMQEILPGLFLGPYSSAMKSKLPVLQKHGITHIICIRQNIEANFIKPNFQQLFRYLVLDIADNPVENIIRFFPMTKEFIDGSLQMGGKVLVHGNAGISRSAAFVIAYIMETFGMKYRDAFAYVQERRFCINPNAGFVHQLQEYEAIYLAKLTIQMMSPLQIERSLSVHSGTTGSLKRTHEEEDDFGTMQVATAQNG
UniProt Q8N2H4: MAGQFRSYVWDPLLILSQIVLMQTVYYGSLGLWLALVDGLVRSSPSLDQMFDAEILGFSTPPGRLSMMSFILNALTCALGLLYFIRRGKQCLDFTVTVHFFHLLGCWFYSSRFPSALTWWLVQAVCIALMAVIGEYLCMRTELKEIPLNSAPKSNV
UniProt Q15544, whole entry, looked up: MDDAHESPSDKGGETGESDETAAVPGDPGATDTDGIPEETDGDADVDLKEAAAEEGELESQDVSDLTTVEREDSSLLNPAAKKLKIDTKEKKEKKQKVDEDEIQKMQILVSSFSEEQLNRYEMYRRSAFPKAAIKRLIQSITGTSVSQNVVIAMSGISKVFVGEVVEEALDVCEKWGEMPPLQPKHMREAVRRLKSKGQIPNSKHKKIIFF
UniProt Q6P1N9: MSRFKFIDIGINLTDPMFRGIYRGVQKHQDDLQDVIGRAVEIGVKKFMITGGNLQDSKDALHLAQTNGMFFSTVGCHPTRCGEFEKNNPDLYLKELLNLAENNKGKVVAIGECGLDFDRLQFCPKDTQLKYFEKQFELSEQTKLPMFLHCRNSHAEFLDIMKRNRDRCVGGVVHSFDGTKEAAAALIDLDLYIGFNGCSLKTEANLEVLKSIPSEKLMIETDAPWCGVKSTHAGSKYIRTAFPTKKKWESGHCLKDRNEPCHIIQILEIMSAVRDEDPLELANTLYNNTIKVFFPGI
UniProt Q15543, whole entry, looked up: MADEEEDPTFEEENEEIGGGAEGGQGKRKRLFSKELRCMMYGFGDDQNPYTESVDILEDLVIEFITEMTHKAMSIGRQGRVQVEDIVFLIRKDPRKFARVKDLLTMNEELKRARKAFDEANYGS
UniProt Q9NYJ8: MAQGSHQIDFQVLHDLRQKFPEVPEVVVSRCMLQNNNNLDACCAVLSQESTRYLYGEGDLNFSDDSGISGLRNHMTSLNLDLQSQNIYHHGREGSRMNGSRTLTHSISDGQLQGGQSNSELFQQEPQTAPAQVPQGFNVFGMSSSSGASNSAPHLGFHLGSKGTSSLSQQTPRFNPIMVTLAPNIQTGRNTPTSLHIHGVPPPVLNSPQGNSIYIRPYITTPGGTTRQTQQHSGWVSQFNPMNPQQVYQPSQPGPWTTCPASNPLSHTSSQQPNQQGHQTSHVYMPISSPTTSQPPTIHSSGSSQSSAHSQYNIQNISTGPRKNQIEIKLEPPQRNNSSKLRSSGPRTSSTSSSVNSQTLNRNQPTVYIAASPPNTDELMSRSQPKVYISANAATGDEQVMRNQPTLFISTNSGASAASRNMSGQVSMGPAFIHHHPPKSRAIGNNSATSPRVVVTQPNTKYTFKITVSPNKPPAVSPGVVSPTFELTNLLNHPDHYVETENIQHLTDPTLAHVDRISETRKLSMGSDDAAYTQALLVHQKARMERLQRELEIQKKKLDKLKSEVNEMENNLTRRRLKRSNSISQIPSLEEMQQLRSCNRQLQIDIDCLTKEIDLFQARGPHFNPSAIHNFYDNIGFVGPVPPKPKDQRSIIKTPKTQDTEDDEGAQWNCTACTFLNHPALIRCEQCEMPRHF
UniProt Q8NBK3: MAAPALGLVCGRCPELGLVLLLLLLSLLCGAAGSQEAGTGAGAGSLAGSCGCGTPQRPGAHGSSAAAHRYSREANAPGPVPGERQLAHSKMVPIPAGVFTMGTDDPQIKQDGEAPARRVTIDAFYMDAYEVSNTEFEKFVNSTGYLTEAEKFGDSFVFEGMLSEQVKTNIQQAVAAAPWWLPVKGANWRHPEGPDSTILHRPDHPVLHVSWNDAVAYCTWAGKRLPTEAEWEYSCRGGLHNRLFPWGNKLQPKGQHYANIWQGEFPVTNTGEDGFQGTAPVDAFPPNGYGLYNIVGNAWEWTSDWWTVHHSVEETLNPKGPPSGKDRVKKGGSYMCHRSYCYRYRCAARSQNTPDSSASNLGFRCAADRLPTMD
UniProt Q8N300: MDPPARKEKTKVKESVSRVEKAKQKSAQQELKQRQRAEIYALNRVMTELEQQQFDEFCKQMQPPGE
UniProt Q15542, whole entry, looked up: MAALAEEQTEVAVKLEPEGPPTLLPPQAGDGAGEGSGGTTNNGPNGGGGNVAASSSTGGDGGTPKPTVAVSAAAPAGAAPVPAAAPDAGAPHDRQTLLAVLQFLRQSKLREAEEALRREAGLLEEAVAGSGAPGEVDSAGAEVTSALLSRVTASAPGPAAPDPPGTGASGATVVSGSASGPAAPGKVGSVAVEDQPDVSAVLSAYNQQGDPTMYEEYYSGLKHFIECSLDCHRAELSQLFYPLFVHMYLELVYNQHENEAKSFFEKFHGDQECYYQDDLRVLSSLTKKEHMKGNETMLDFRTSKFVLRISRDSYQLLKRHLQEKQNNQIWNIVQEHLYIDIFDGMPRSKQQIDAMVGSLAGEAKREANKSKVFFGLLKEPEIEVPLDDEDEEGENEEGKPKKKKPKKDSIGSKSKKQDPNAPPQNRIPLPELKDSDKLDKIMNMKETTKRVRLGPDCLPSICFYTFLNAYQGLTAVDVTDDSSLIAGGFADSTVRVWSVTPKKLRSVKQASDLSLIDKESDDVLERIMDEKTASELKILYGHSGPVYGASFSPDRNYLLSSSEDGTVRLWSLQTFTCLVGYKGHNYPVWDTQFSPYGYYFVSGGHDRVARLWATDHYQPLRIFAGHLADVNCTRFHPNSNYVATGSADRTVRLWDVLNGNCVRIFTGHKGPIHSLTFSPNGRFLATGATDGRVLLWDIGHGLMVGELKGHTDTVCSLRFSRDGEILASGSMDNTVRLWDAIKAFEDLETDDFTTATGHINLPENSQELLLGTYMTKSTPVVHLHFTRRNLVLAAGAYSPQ
UniProt Q16514: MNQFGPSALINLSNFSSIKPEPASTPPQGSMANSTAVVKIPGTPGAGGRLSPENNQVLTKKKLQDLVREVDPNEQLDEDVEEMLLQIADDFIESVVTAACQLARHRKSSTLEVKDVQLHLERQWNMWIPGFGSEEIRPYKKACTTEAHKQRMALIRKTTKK

This is one part of the list. Residues, ends and D or L forms follow the SMILES beside them. *: point of attachment. Cbz = O=C(OCc1ccccc1)*

Compound in one assay: CC(C)(C)Cn1c(N)nc2ccc(-c3[nH]c(C(C)(C)C)nc3-c3ccc(F)cc3)nc21 [ralimetinib]
The assay is described as follows: log2 fold change, soluble protein after heating vs DMSO (PISA); higher = thermal stabilisation; K562 cells, 10 uM, 30 min; active = over 0.2 and 3.5 SD of the protein, either way, in both replicates (recomputed). The gist of the method: (§1)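 Values are thermal stability changes relative to control samples and are taken from duplicates. They are stated as log2 fold changes. Before quantification by TMTpro 16plex LC-MS/MS with equalised channel sums, K562 cells at 2×10^6 cells/mL were treated with 10 μM compound for 30 min, heated in aliquots for 3 min across 48°C-58°C, pooled, extracted in PBS with 0.5% NP-40 at 4°C, and centrifuged at 21,000xg for 90 min to give the soluble supernatant.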
Regarding TAOK2 (UniProt Q9UL54), the log2 fold change is inactive: 0.09.
Same read-out and setting: the value for STON2 isoform 3 (UniProt Q8WXE9) was inactive: 0.147.
On the same count and under the same terms, for STRIP2 (UniProt Q9ULQ0) the value was inactive: -0.028; for TAF6L (UniProt Q9Y6J9), inactive: -0.092; for SUPT3H isoform 4 (UniProt O75486), inactive: 0.106.
On to SUN1 isoform 9 (UniProt O94901), for which the log2 fold change was inactive: 0.067.
On the same count and under the same terms, for SUCO (UniProt Q9UBS9) the value was inactive: 0.097.
For the target TACC2 (UniProt O95359), the log2 fold change is inactive: 0.108.
The same measure, in the same setting: for TACC3 (UniProt C9JWI7) the value was inactive: -0.099; for STK36 (UniProt Q9NRP7), inactive: 0.333; for STYX (UniProt Q8WUJ0), inactive: -0.22.
Same read-out and setting: the value for TASOR (UniProt Q9UK61) was inactive: -0.03.
The same measure, in the same setting: for SYS1 (UniProt Q8N2H4) the value was inactive: 0.057; for TAF11 (UniProt Q15544), inactive: -0.007.
With TATDN1 isoform 2 (UniProt Q6P1N9), the log2 fold change was inactive: 0.023.
Consider TAF13 (UniProt Q15543), for which the log2 fold change was inactive: 0.038.
Same read-out and setting: for TAB2 (UniProt Q9NYJ8) the value was inactive: 0.043; for SUMF1 isoform 3 (UniProt Q8NBK3), inactive: 0.224; for SUZ12 (UniProt Q15022), inactive: -0.12.
SVBP (UniProt Q8N300): the log2 fold change was inactive: 0.029.
The same measure, in the same setting: the value for TAZ (UniProt Q16635) was inactive: -0.135; that for TAF5 (UniProt Q15542) was inactive: 0.246; that for STOML1 (UniProt Q9UBI4) was inactive: -0.004.
As to STK35 (UniProt Q8TDR2), the log2 fold change was inactive: -0.038.

Compound in another assay: CC(C)(O)CC(=O)NCCn1ccc2ncnc(Nc3ccc(Oc4cccc(C(F)(F)F)c4)c(Cl)c3)c21
The assay is described as above. The gist of the method:
as §1
As to TAOK2 (UniProt Q9UL54), the log2 fold change was inactive: -0.041.
On the same count and under the same terms, for STRIP2 (UniProt Q9ULQ0) the value was inactive: -0.074; for TBC1D12 (UniProt O60347), inactive: -0.002; for SUN1 isoform 9 (UniProt O94901), inactive: 0.115.
Consider SUCO (UniProt Q9UBS9), for which the log2 fold change was inactive: 0.194.
The same measure, in the same setting: for SYTL4 (UniProt Q96C24) the value was inactive: 0.048.
In the case of TASP1 (UniProt Q9H6P5), the log2 fold change is inactive: 0.11.
On the same count and under the same terms, for SUGP2 (UniProt Q8IX01) the value was inactive: 0.137; for TAF13 (UniProt Q15543), inactive: 0.215.
Consider STXBP4 (UniProt Q6ZWJ1), for which the log2 fold change is inactive: 0.032.
On the same count and under the same terms, for TAB2 (UniProt Q9NYJ8) the value was inactive: 0.016.
Regarding SUMF1 isoform 3 (UniProt Q8NBK3), the log2 fold change is inactive: 0.052.
Still for that read-out and setting: for SVBP (UniProt Q8N300) the value was inactive: -0.061; for TAF5 (UniProt Q15542), inactive: 0.18.

Compound in a further assay: CC(C)C1=C2N=C(C=C(N2N=C1)NCC3=CC=CC=C3)NCCCCCCN
The description is as above. The method, boiled down: as §1
Regarding SULT1E1 (UniProt P49888), the log2 fold change is inactive: 0.009.
Still for that read-out and setting: for TAOK2 (UniProt Q9UL54) the value was inactive: 0.083; for STRIP2 (UniProt Q9ULQ0), inactive: 0.04.
On the same count and under the same terms, for TAF6L (UniProt Q9Y6J9) the value was inactive: 0.023; for TBC1D12 (UniProt O60347), inactive: 0.009.
Still for that read-out and setting: the value for SUN1 isoform 9 (UniProt O94901) was inactive: -0.149; that for SUCO (UniProt Q9UBS9) was inactive: -0.047.
For SYTL4 (UniProt Q96C24), the log2 fold change is inactive: -0.049.
Regarding STXBP5L (UniProt Q9Y2K9), the log2 fold change is inactive: -0.196.
On the same count and under the same terms, for TACC2 (UniProt O95359) the value was inactive: -0.205.
On to STK36 (UniProt Q9NRP7), for which the log2 fold change was inactive: -0.301.
The same measure, in the same setting: the value for TASP1 (UniProt Q9H6P5) was inactive: 0.12; that for STYX (UniProt Q8WUJ0) was inactive: -0.198.
Same read-out and setting: the value for SYS1 (UniProt Q8N2H4) was inactive: 0.036; that for TAF11 (UniProt Q15544) was inactive: -0.097.
Consider TATDN1 isoform 2 (UniProt Q6P1N9), for which the log2 fold change was inactive: 0.344.
Same read-out and setting: for TAF12 (UniProt Q16514) the value was inactive: 0.019; for TADA1 (UniProt Q96BN2), inactive: -0.045; for TAGLN (UniProt Q01995), inactive: 0.276.
On the same count and under the same terms, for SUMF1 isoform 3 (UniProt Q8NBK3) the value was inactive: 0.005.
Same read-out and setting: the value for TAF5 (UniProt Q15542) was inactive: -0.022; that for SUFU (UniProt Q9UMX1) was inactive: -0.298.

Compound in a further assay: CC(C)C[C@@H](C=O)NC(=O)[C@H](CC(C)C)NC(=O)[C@H](CC(C)C)NC(=O)OCc1ccccc1
Described as above. The method, boiled down:
as §1
As for TAOK2 (UniProt Q9UL54), the log2 fold change was inactive: 0.001.
The same measure, in the same setting: the value for STON2 isoform 3 (UniProt Q8WXE9) was inactive: 0.005; that for STRIP2 (UniProt Q9ULQ0) was inactive: 0.027; that for TAF6L (UniProt Q9Y6J9) was inactive: 0.122.
In the case of SUPT3H isoform 4 (UniProt O75486), the log2 fold change was inactive: -0.103.
Consider SUN1 isoform 9 (UniProt O94901), for which the log2 fold change is inactive: 0.042.
The same measure, in the same setting: for SUCO (UniProt Q9UBS9) the value was inactive: -0.087.
Still for that read-out and setting: the value for TACC2 (UniProt O95359) was inactive: -0.007.
The same measure, in the same setting: the value for TACC3 (UniProt C9JWI7) was inactive: 0.155.
As to STK36 (UniProt Q9NRP7), the log2 fold change was inactive: 0.088.
For STYX (UniProt Q8WUJ0), the log2 fold change is inactive: -0.093.
On to TASOR (UniProt Q9UK61), for which the log2 fold change was inactive: 0.008.
SYS1 (UniProt Q8N2H4): the log2 fold change is inactive: -0.037.
Same read-out and setting: for TAF11 (UniProt Q15544) the value was inactive: 0.093; for TATDN1 isoform 2 (UniProt Q6P1N9), inactive: -0.065; for TAF13 (UniProt Q15543), inactive: -0.172.
For TAB2 (UniProt Q9NYJ8), the log2 fold change is inactive: 0.106.
For the target SUMF1 isoform 3 (UniProt Q8NBK3), the log2 fold change is inactive: -0.037.
Same read-out and setting: for SUZ12 (UniProt Q15022) the value was inactive: 0.124; for SVBP (UniProt Q8N300), inactive: 0.147; for TAZ (UniProt Q16635), inactive: -0.016.
Consider TAF5 (UniProt Q15542), for which the log2 fold change is inactive: 0.131.
Still for that read-out and setting: for STOML1 (UniProt Q9UBI4) the value was inactive: 0.124; for STK35 (UniProt Q8TDR2), inactive: 0.083.
